In US20060286066A1 (published 2006):
Results are given in words; binding and its absence hold for the method and conditions named. Some entries that bind do so weakly or less than the wild type.

B1: HEL4 PEGylated with THIOL-PEG (protein)
VH: EVQLLESGGGLVQPGGSLRLSCAASGFRISDEDMGWVRQAPGKGLEWVSSIYGPSGSTYYADSVKGRFTISRDNSKNTLYLQMNSLRAEDTAVYYCASALEPLSEPLGFWGQGTLVTVSS
modifications: THIOL-PEG on a cysteine (position and construct not given)
B2: HEL4 PEGylated with MAL-PEG (protein)
VH: B1 VH
modifications: MAL-PEG on a cysteine (position and construct not given)

Molecular target: hen egg white lysozyme (hen, UniProt P00698 19-147)
Assay: batch binding to lysozyme-Sepharose affinity resin, SDS-PAGE read-out
Method: A HEL4 affinity based resin (based on the antigen, hen egg white lysozyme) was produced to test the functionality of the PEGylated dAb. Lysozyme was coupled to NETS activated Sepharose 4B resin (Amersham Pharmacia) following the manufacturer's instructions. The PEGylated samples (5 μg) were then mixed with the affinity resin (100 μl) and allowed to bind in PBS at room temperature for 30 mins. The resin was then extensively washed with PBS (3×1 ml) to remove unbound protein. The affinity resin was then run on a SDS-PAGE to determine if the PEGylated HEL4 had bound to the matrix (see Section 8.3).

Binder | binding
B1 | binds
B2 | binds
